One sequence from publication PMC3167755 can be followed below.

Tags and fusion partners may be left off the protein sequences shown. Construct, isoform or probe ends are uncertain for at least one entry. A weaker result is weaker than the reference pair of the same experiment.

This data set addresses T1, Fur-His6 (CjFur-His6) (Campylobacter jejuni 81-176) (UniProt P0C631).
T1 sequence (looked up): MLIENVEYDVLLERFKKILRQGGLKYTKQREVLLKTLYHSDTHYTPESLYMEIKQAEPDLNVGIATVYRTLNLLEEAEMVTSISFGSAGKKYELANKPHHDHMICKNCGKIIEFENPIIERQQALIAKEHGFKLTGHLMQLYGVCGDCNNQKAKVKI
The experiment in a line: EMSA. The note with it: 10 mM Tris-HCl pH 7.5, 1 mM MgCl2, 0.5 mM DTT, 50 mM KCl, 100 uM MnCl2 (omitted where stated), 1 ug poly(dI-dC), 50 ug BSA, 5% glycerol, 20 ul, ~28 fmol DNA, recombinant protein, residues 1-157, label: digoxigenin on primer DIG_dsbA2X, probe letters rebuilt from the primers and the genome. (Mobility shift assays separate free from complexed probe on a gel.)

Consider “CTTATCCATAAAATATAATGTAAAAAATTGATAATTTTATTTCGTAAATTAAAATTATATTTTACTTTTATTGAAAACTATAAAGAATATTTAAAAATTAAATTATTTTATATTATTATCAAAATATACATAAAAATGATAACTTGTGCATTTAAATTTTTTAATCCCCTATTCTTGATTTTTAGTTAAAGTAAATATTCTTAGTTATAAAATTTTTAAGAATATTTTTATTTTAATAGTTTTATAATGATTATTACATAAAAACTTAATAAAAAGTTTTATCAAAACCAAATTTCAAGGAGAAGGTAATGAAATTTCCAGTAAAATTAGCAAGATCTATTGTTGTATGTG (double strand) [dsbA2-dsbB-astA promoter region]”, for which the binding result was “binds more weakly” (100 uM Mn2+, bound only at high protein concentration) and “binds” (no Mn2+, 0-3333 nM Fur).
